# Assay results reported in publication PMC8425198.
# Chains of the proteins cited; added tags and fusions are not shown. Residues count along the entry.
# UniProt P09429: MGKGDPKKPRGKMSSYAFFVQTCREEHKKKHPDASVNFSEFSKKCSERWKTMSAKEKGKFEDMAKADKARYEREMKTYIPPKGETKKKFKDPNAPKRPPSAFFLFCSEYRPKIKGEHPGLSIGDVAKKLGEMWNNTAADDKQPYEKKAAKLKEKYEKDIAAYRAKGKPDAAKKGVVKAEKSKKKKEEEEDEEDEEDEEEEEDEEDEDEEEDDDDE
# UniProt P54760, residues 16-987: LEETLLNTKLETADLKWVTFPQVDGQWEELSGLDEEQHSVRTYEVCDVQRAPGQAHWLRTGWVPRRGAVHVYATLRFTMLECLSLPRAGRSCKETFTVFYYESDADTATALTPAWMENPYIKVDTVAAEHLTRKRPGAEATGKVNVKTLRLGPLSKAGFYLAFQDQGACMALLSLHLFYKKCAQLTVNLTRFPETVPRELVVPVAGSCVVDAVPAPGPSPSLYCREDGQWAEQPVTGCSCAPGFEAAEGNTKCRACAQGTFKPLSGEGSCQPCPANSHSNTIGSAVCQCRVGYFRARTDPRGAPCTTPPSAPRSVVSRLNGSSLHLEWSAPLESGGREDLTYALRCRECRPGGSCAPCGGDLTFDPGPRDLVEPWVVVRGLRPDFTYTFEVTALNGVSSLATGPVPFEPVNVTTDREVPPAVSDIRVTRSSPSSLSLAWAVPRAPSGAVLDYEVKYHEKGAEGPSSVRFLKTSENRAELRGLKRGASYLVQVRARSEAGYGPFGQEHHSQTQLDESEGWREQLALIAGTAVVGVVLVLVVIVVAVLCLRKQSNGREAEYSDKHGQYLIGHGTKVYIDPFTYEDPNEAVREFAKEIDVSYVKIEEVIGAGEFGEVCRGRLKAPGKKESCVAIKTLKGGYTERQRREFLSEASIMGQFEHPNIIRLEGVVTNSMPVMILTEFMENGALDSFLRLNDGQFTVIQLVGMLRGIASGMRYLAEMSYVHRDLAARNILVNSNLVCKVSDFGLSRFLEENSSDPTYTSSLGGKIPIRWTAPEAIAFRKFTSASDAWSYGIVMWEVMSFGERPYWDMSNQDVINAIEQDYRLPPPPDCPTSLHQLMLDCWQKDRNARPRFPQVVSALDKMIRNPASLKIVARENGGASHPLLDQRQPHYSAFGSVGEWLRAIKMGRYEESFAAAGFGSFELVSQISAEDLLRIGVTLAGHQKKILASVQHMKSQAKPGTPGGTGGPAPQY
# Results are given in words; binding and its absence hold for the method and conditions named. In cells and extracts the contact can be indirect. Some binding calls cover weakened binding; strength is not graded here.
# Tests used:
# [1] = molecular target: high-mobility group box 1 (HMGB1) (human (endogenous in SCC9)) (UniProt P09429); test: co-IP; endogenous proteins; NP-40 lysate incubated with anti-EPHB4 or anti-HMGB1 or IgG (control) at 4 °C for 2 hours, protein A/G agarose overnight at 4 °C, washed with NP-40 3 times, western blot; cell line not stated
# [2] = molecular target: Erythropoietin-producing human hepatocellular B4 (EPHB4) (human (endogenous in SCC9)) (UniProt P54760); test: as above
Substance,binding [1],binding [2]
Erythropoietin-producing human hepatocellular B4 (EPHB4) (from UniProt P54760 16-987) (receptor),binds,–
high-mobility group box 1 (HMGB1) (from UniProt P09429 1-215),–,binds
